Values of other authors as cited in US20180368457A1 (Petiva Private Limited, priority 2015, published 2018).

Settings: for sweetness, of the sweetness of sucrose: pure sugar relative to sucrose

| Structure (SMILES) | sweetness, of the sweetness of sucrose | sweetening power related to sucrose (in 10% solution) |
| --- | --- | --- |
| O=C(CO)[C@H](O)[C@H](O)[C@H](O)CO [allulose, D-Psicose] | 70% |  |
| OCC1O[C@H](OC[C@H]2O[C@](O)(CO)C(O)C2O)C(O)C(O)[C@@H]1O (stereo partly drawn) [isomaltulose, Isomaltulose] |  | 0.18 |
| OC[C@H]1O[C@](O)(CO[C@H]2O[C@H](CO)[C@@H](O)[C@H](O)[C@H]2O)[C@@H](O)[C@@H]1O [trehalulose, 1-O-α-D-glucopyranosyl-β-D-fructofuranose] | about 60% |  |
